Source: article PMC11653675

Experiments:
[1] = biological target: TET1CD-Flag (TET1 catalytic structural domain, Flag-tagged) (human); assay: co-IP; HEK293T cells co-transfected with PPM1G-HA and Flag-tagged TET1 segments; IP with anti-HA or anti-Flag and protein A/G magnetic beads overnight at 4 °C; lysis buffer 20 mM Tris-HCl pH 7.4, 1 mM EDTA, 150 mM NaCl, 1% NP-40; immunoblot
[2] = biological target: TET1F1-Flag (CXXC region of TET1) (human); assay: as above

B1: PPM1G-HA (PPM1G-hemagglutinin) (enzyme, UniProt O15355 1-546)
chain: MGAYLSQPNTVKCSGDGVGAPRLPLPYGFSAMQGWRVSMEDAHNCIPELDSETAMFSVYDGHGGEEVALYCAKYLPDIIKDQKAYKEGKLQKALEDAFLAIDAKLTTEEVIKELAQIAGRPTEDEDEKEKVADEDDVDNEEAALLHEEATMTIEELLTRYGQNCHKGPPHSKSGGGTGEEPGSQGLNGEAGPEDSTRETPSQENGPTAKAYTGFSSNSERGTEAGQVGEPGIPTGEAGPSCSSASDKLPRVAKSKFFEDSEDESDEAEEEEEDSEECSEEEDGYSSEEAENEEDEDDTEEAEEDDEEEEEEMMVPGMEGKEEPGSDSGTTAVVALIRGKQLIVANAGDSRCVVSEAGKALDMSYDHKPEDEVELARIKNAGGKVTMDGRVNGGLNLSRAIGDHFYKRNKNLPPEEQMISALPDIKVLTLTDDHEFMVIACDGIWNVMSSQEVVDFIQSKISQRDENGELRLLSSIVEELLDQCLAPDTSGDGTGCDNMTCIIICFKPRNTAELQPESGKRKLEEVLSTEGAEENGNSDKKKKAKRD
binding [1]: binds
binding [2]: no binding

These are yes or no findings as the source states them, for the method shown. Binding seen in cells or lysates may run through a third protein. For some assays here: Binding calls can cover weak binding; strength is not graded here. Sequences can lack the tags named with a protein.
